# Earlier results, collected in patent US9446009B2, “Methods for treating conditions of the nail unit” (Hallux, Inc., priority 2004, dated 2016).
# Columns and labels:
# Settings in all cases: in vitro
# Trichophyton rubrum = test system: Trichophyton rubrum
# Trichophyton verrucosum = test system: Trichophyton verrucosum
# Trichophyton tonsurans = test system: Trichophyton tonsurans
# [1] = test system: Trichophyton mentagrophytes
SMILES,MIC Ranges (Trichophyton rubrum) [mg/L],MIC Ranges (Trichophyton verrucosum) [mg/L],MIC Ranges (Trichophyton tonsurans),MIC Ranges [1] [mg/L]
Clc1ccc(CO/N=C(\Cn2ccnc2)c2ccc(Cl)cc2Cl)c(Cl)c1 [Oxiconazole],<0.0008 to 2,4,≦0.0008-2 ^ mcg/ml,0.06 to 0.5
Clc1ccc(CSC(Cn2ccnc2)c2ccc(Cl)cc2Cl)cc1 (centres unmarked) [Sulconazole],<0.008 to 4,4,≦0.008-0.03 mcg/ml,0.016 to 0.125
